Results deposited as PubChem BioAssay AID652243 (Drosophila RNAi Screening Center, 2013)

Screen: 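Fly genes required for human androgen receptor driven transcription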 (primary screen)
Cells: Drosophila S2R+ cells
Reagents: long dsRNA against Drosophila genes
Duration: 72 h (48 h, then 24 h hormone)
Conditions: synthetic androgen R1881 at 10 nM for 24 h
Measurement: 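Firefly light from an androgen-responsive reporter and Renilla control light per well, raw and unnormalised, for each of two replicates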
Scale: firefly reporter light: higher = more light from androgen-responsive reporter; Renilla control light: higher = more constitutive control signal (cell number, transfection)
Rule for the call: 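Across duplicate plates, a knock-down whose log firefly/Renilla ratio shifted a set fold down or up from the GFP/LacZ control mean was a hit; the downward cut appears as both 1.5 and 3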
Meaning of the calls: active = hit: reporter lowered or raised; inactive = no hit
The deposit covers about 24,000 reagents; this is a random part of those with a known target gene and a result. In the full data, 246 (1%) were called active. 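Plates not normalised; calls are printed but the firefly/Renilla ratio behind them is not deposited; fold cut for lowering reported inconsistently.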 The raw values are shown without normalisation. Not given: the amount of reagent.

| gene knocked down | amplicon | firefly reporter light, replicate 1 | firefly reporter light, replicate 2 | Renilla control light, replicate 1 | Renilla control light, replicate 2 | Outcome |
| --- | --- | --- | --- | --- | --- | --- |
| pths (GeneID 35379) | DRSC03171 | 79650 | 79579 | 9.75e5 | 8.61e5 | inactive |
| CG14187 (GeneID 40199) | DRSC10186 | 2.44e5 | 1.66e5 | 1.92e6 | 1.87e6 | inactive |
| CG14187 (GeneID 40199) | DRSC26776 | 4.04e5 | 3.33e5 | 8.45e5 | 8.09e5 | inactive |
| Arr2 (GeneID 38993) | DRSC09670 | 1.89e5 | 1.71e5 | 1.98e6 | 1.64e6 | inactive |
| CG12674 (GeneID 33384) | DRSC00348 | 64441 | 86245 | 8.00e5 | 3.82e5 | inactive |
| CG15390 (GeneID 33422) | DRSC00404 | 1.06e5 | 98858 | 6.86e5 | 9.88e5 | inactive |
| CG10208 (GeneID 42814) | DRSC14211 | 2.24e5 | 3.05e5 | 2.89e6 | 3.33e6 | inactive |
| eRF3 (GeneID 34658) | DRSC03322 | 3.08e5 | 2.61e5 | 1.19e6 | 2.03e6 | inactive |
| vvl (GeneID 38752) | DRSC11409 | 1.73e5 | 80132 | 2.12e6 | 1.50e6 | inactive |
| vvl (GeneID 38752) | DRSC26681 | 2.74e5 | 2.02e5 | 7.05e5 | 4.44e5 | inactive |
| mex1 (GeneID 39677) | DRSC11368 | 2.66e5 | 1.83e5 | 2.68e6 | 2.09e6 | inactive |
| S-Lap7 (GeneID 36524) | DRSC06374 | 54802 | 70017 | 5.26e5 | 5.26e5 | inactive |
| S-Lap7 (GeneID 36524) | DRSC27414 | 6.07e5 | 4.35e5 | 1.08e6 | 9.66e5 | inactive |
| CG33226 (GeneID 2768859) | DRSC37794 | 7.46e5 | 4.91e5 | 2.18e6 | 1.13e6 | inactive |
| Prosalpha3 (GeneID 37378) | DRSC04644 | 1.32e5 | 1.66e5 | 1.05e6 | 1.20e6 | inactive |
| rswl (GeneID 37124) | DRSC06923 | 1.56e5 | 1.19e5 | 6.20e5 | 5.39e5 | inactive |
| PIG-T (GeneID 31772) | DRSC17774 | 2.04e5 | 2.71e5 | 3.99e6 | 4.16e6 | inactive |
| CG3520 (GeneID 37708) | DRSC04383 | 2.81e5 | 3.12e5 | 1.79e6 | 1.38e6 | inactive |
| Unr (GeneID 38963) | DRSC10761 | 7.10e5 | 6.34e5 | 1.26e6 | 1.61e6 | inactive |
| Unr (GeneID 38963) | DRSC22959 | 5.71e5 | 8.43e5 | 2.19e6 | 2.50e6 | inactive |
| Unr (GeneID 38963) | DRSC25400 | 6.42e5 | 4.05e5 | 6.16e5 | 5.70e5 | inactive |
| Unr (GeneID 38963) | DRSC26920 | 4.71e5 | 4.55e5 | 1.11e6 | 8.74e5 | inactive |
| dls (GeneID 3772513) | DRSC37821 | 8.35e5 | 7.53e5 | 1.55e6 | 2.10e6 | inactive |
| SiaT (GeneID 37950) | DRSC04494 | 1.21e5 | 1.32e5 | 1.20e6 | 9.31e5 | inactive |
| C901 (GeneID 32032) | DRSC19351 | 2.70e5 | 2.43e5 | 2.18e6 | 2.64e6 | inactive |
| C901 (GeneID 32032) | DRSC28397 | 5.37e5 | 9.09e5 | 9.27e5 | 1.45e6 | inactive |
| Obp56a (GeneID 37264) | DRSC06085 | 82565 | 1.52e5 | 8.73e5 | 1.54e6 | inactive |
| Obp56a (GeneID 37264) | DRSC30070 | 7.86e5 | 7.07e5 | 1.01e6 | 8.15e5 | inactive |
| Trx2 (GeneID 34281) | DRSC03622 | 2.23e5 | 1.80e5 | 1.82e6 | 1.33e6 | inactive |
| Trx2 (GeneID 34281) | DRSC28288 | 4.35e5 | 5.32e5 | 1.08e6 | 1.28e6 | inactive |
| CG3062 (GeneID 31396) | DRSC18572 | 3.17e5 | 2.69e5 | 3.88e6 | 3.02e6 | inactive |
| PIP4K (GeneID 3885565) | DRSC17213 | 3.28e5 | 3.25e5 | 4.42e6 | 3.48e6 | inactive |
| PIP4K (GeneID 3885565) | DRSC39262 | – | – | – | – | inactive |
| PIP4K (GeneID 3885565) | DRSC39291 | – | – | – | – | inactive |
| trsn (GeneID 36110) | DRSC06078 | 2.96e5 | 2.21e5 | 1.55e6 | 9.22e5 | inactive |
| SLO2 (GeneID 5740325) | DRSC06214 | 3.88e5 | 2.40e5 | 1.98e6 | 1.61e6 | inactive |
| SLO2 (GeneID 5740325) | DRSC06216 | 3.36e5 | 2.19e5 | 2.44e6 | 1.43e6 | inactive |
| SLO2 (GeneID 5740325) | DRSC06218 | 3.17e5 | 2.28e5 | 1.98e6 | 1.95e6 | inactive |
| SLO2 (GeneID 5740325) | DRSC23225 | 3.79e5 | 4.61e5 | 8.69e5 | 1.23e6 | inactive |
| SLO2 (GeneID 5740325) | DRSC27805 | 2.32e5 | 2.48e5 | 5.37e5 | 8.16e5 | inactive |

A few values from the list:
Value of CG14187 (GeneID 40199) [DRSC26776] in “Renilla control light, replicate 1”: 8.45e5
SLO2 (GeneID 5740325) [DRSC27805], Renilla control light, replicate 2 → 8.16e5
